# Experimental data as given in PubChem BioAssay AID2685 (National Center for Advancing Translational Sciences (NCATS), 2010).
# Some of the results follow. Further columns of the screen follow, without active or inactive calls. Compounds called inactive in the main read-out are mostly missing here. The note in brackets gives the kind of curve behind each potency; many fits are weak.
# Assay: qHTS Assay for Lipid Storage Modulators in Drosophila S3 Cells;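 on cell number change: cells counted by Cell Tracker Red CMTPX staining in the red channel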
# Conditions: BODIPY lipid droplet fluorescence, 18-24 h; for cell number change: measured here: cell count max response, cells fed with added oleic acid
# In short: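 Laser-scanning cytometry quantifies lipid droplet accumulation (500–530 nm total intensity; droplet/cell object ratio) in oleic acid-fed (400 uM added) Drosophila S3 cells treated with a concentration series. 20 uM Triacsin C defined 100% inhibition.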
# [1] = measured here: cell number channel AC50, cells fed with added oleic acid
# [2] = measured here: lipid fluorescence (Fed channel) AC50, cells fed with added oleic acid
SMILES,cell number change,AC50 [1],AC50 [2]
O=C(CC(c1ccccc1)c1ccccc1)Nc1ccc(Cl)cn1,60.7%,"1.3 µM [rising, full curve]","2.06 µM [rising, partial curve]"
Cc1nc(C)c(C(=O)N2CCCC(C(=O)c3ccc4ccccc4c3)C2)s1 (configuration not stated),-47.5%,"29.1 µM [falling, single point]","29.1 µM [falling, single point]"
Cc1nc2nc(C)c(CCC(=O)N3CCN(c4ccccc4)CC3)c(C)n2n1,–,"1.84 µM [rising, partial curve]","0.731 µM [rising, single point]"
N#CC1=C(S)N=C(N)C(c2nc(-c3ccccc3)cs2)C12CCCCC2 (configuration not stated),–,"2.59 µM [rising, partial curve, poor fit]",–
Cc1cc(C(=O)Nc2ccccc2C(=O)O)ccc1NC(=O)COc1ccccc1Cl,21.1%,–,"8.2 µM [rising, partial curve]"
CC(C)c1ccc(NS(=O)(=O)c2ccc(Cl)nc2)cc1,-34.5%,"32.6 µM [falling, single point]","29.1 µM [falling, single point]"
CCN(CC)CCCNC(=O)c1ccc(S(=O)(=O)Nc2ccc(C)c(C)c2)cc1,1.3%,–,"6.51 µM [falling, partial curve, poor fit]"
Cc1ccccc1NC(=O)COc1ccc(Br)cc1CNCCCO,-0.673%,–,–
COc1ccc(C)cc1NC(=O)COC(=O)CCC(=O)c1cccs1,13.2%,–,"4.11 µM [rising, full curve, poor fit]"
Cc1ccccc1-c1noc(-c2ccc(O)cc2)n1,-63%,"13 µM [falling, partial curve]","13 µM [falling, partial curve]"
O=C(NCC1CCCO1)c1ccccc1NC(=O)c1cccc2ccccc12 (configuration not stated),-12.5%,"0.13 µM [rising, full curve, poor fit]","29.1 µM [falling, partial curve, poor fit]"
Cc1cc(C)nc(NC(=O)C(c2ccccc2)c2ccccc2)c1,37.7%,"6.51 µM [rising, partial curve]","9.2 µM [rising, partial curve]"
CCOP(=O)(c1ccccc1)c1nc(-c2ccccc2C)oc1N1CCCCC1 (configuration not stated),-48.1%,"29.1 µM [falling, single point]",–
Cn1c(CNc2ccccc2)nc2ccccc21,-31.8%,"5.8 µM [falling, partial curve]","0.58 µM [rising, full curve, poor fit]"
CCCC(C(=O)n1nc(C)cc1C)C(NS(=O)(=O)c1ccc(C)cc1)c1ccccc1 (configuration not stated),-44.7%,"25.9 µM [falling, partial curve, poor fit]","1.84 µM [rising, partial curve, poor fit]"
O=c1cc(-c2ccc(O)c(-c3c(O)cc(O)c4c(=O)cc(-c5ccc(O)cc5)oc34)c2)oc2cc(O)cc(O)c12,-12.9%,–,"0.013 µM [rising, full curve, poor fit]"
Cc1ccccc1C(=O)NCCCCc1ccccc1,5.41%,–,"8.2 µM [rising, partial curve]"
Cc1ccc(N2C(=O)c3ccccc3C2C(=O)c2ccc(O)cc2O)cc1 (configuration not stated),5.06%,–,"0.731 µM [falling, full curve, poor fit]"
CCC(Cc1ccccc1)NC(=O)C1=C(C)C(=O)OC12CCC(C)CC2 (configuration not stated),-30.6%,"0.411 µM [falling, full curve]","1.64 µM [falling, partial curve, poor fit]"
CC(C)C[C@H]1CN=C(N(C)C)N1CCCCc1ccccc1,17.4%,–,"18.4 µM [rising, single point]"
Cc1ccc2nc3c(cc(C#N)c(=O)n3CC3CCCO3)c(=O)n2c1 (configuration not stated),2.71%,–,"3.26 µM [rising, single point]"
O=C(c1ccc(N2CCN(C(=O)c3ccc(F)c(F)c3)CC2)cc1)c1cccc(F)c1,11.4%,–,–
COc1ccc(-c2nnn(CC(=O)N(CC(=O)NC3CCCC3)Cc3ccco3)n2)cc1OC,-29.5%,–,"23.1 µM [falling, single point]"
CCOc1ccccc1CN1C(=O)NC2(CCCCCC2)C1=O,–,–,"29.1 µM [falling, single point]"
O=C(CSC1=NCCS1)NCc1ccco1,-12.5%,–,"25.9 µM [falling, partial curve]"
COc1cc(/C=C/c2cc(OC(C)=O)c3ccccc3n2)c(OC(C)=O)c([N+](=O)[O-])c1,-38.4%,"3.26 µM [falling, full curve]","3.66 µM [falling, full curve]"
Cc1cc(C)n(CCc2nc(-c3ccc(-c4ccccc4)cc3)cs2)n1,–,–,"1.84 µM [rising, partial curve]"

# As entered above.
# In cell number change, CCOP(=O)(c1ccccc1)c1nc(-c2ccccc2C)oc1N1CCCCC1 (configuration not stated) is entered as -48.1%
# In cell number change, CC(C)C[C@H]1CN=C(N(C)C)N1CCCCc1ccccc1 is entered as 17.4%

# (list continues)

SMILES,cell number change,AC50 [1],AC50 [2]
CSc1nc2ccc(NC(=O)c3ccc(=O)n(C)n3)cc2s1,93.8%,"6.51 µM [falling, single point]","5.17 µM [falling, single point]"
CCOCCc1nnc(NC(=O)Cc2ccc(Br)cc2)s1,–,"2.06 µM [rising, partial curve]","1.3 µM [rising, partial curve]"
Cn1c(SCc2ccc([N+](=O)[O-])cc2)nc2c(c1=O)SCC2,-15.3%,–,–
CC1CCCCC1NC(=O)Cn1c(=O)oc2cc(S(=O)(=O)N3CCCC3)ccc21 (configuration not stated),12%,–,"0.092 µM [falling, full curve, poor fit]"
CCN1CC2=C(OC(N)=C(C#N)C2c2cccs2)/C(=C\c2cccs2)C1 (configuration not stated),–,"2.91 µM [rising, partial curve, poor fit]","1.46 µM [rising, partial curve]"
Brc1ccccc1-c1nnc(COc2cccc3cccnc23)o1,44.8%,"5.8 µM [rising, partial curve, poor fit]","11.6 µM [rising, partial curve]"
COc1ccc(-c2n[nH]c(=S)o2)c(OC)c1,14.3%,–,"29.1 µM [rising, single point]"
COc1ccc(CCNc2nc(-c3sc(C)nc3C)cs2)cc1OC,-60.9%,"20.6 µM [falling, partial curve]","1.16 µM [rising, full curve]"
COc1ccccc1C(=O)NC(CCSC)C(=O)NCC(c1ccccc1OC)N1CCCC1 (configuration not stated),0.962%,–,"0.0731 µM [falling, full curve, poor fit]"
CCC(C)(C)n1nnnc1C(c1ccc(OC)cc1)N1CCN(C(=O)c2ccco2)CC1 (configuration not stated),9.17%,–,–
COC(=O)c1cc(C(=O)OCC(=O)NNC(=O)c2cccs2)cc([N+](=O)[O-])c1,74.3%,"9.2 µM [rising, partial curve]",–
O=C(NNS(=O)(=O)c1ccc(Br)cc1)c1csnn1,-17.8%,"0.00651 µM [falling, full curve, poor fit]",–
COc1ccc(CNC(=O)c2cc3cccc(O)c3oc2=N)cc1,-0.862%,–,"4.61 µM [falling, full curve, poor fit]"
COc1ccc(Cl)cc1NC(=O)CCc1nnc2ccc(N3CCC4(CC3)OCCO4)nn12,–,–,"18.4 µM [falling, partial curve]"
Cc1cccc2cc(CN(Cc3ccco3)S(=O)(=O)c3ccc4c(c3)OCCO4)c(=O)[nH]c12,-17.3%,–,–
CC1CC(C)CN(CCCNC(=O)CC2Oc3ccccc3NC2=O)C1 (configuration not stated),11.4%,–,"0.231 µM [falling, full curve]"
CS(=O)(=O)c1cccc(C(=O)Nc2nnc(C3=COCCO3)o2)c1,-2.53%,–,"23.1 µM [rising, partial curve, poor fit]"
CON(C)S(=O)(=O)c1cccc(C(=O)Nc2ccc(S(=O)(=O)NC3=NCCCCC3)cc2)c1,20%,–,–
Cc1noc(C)c1COC(=O)[C@H](C)NS(=O)(=O)c1ccc(Cl)c(Cl)c1,–,–,"0.58 µM [falling, single point]"
CCOC(=O)C1=C(C)N=c2s/c(=C3/C(=O)Nc4ccccc43)c(=O)n2C1c1ccc(C)cc1 (configuration not stated),11.6%,"2.91 µM [falling, single point]",–
COc1ccc(N2CCN(C(=O)c3ccc(CS(=O)Cc4ccc(Cl)cc4)o3)CC2)cc1 (configuration not stated),46.6%,"13 µM [rising, partial curve]","4.61 µM [rising, full curve]"
Nc1ccc(C(=O)N/N=C/c2cn(Cc3ccccc3F)c3ccccc23)cc1,-45%,"29.1 µM [falling, single point]","29.1 µM [falling, single point]"
COc1ccc(-c2cn3c(C)c(C(=O)Nc4cc(NC(C)=O)ccc4OC)sc3n2)cc1,14.4%,–,"7.31 µM [rising, partial curve, poor fit]"
O=C(c1ccccn1)N1CCN(S(=O)(=O)c2ccccc2)CC1,-66.1%,"11.6 µM [falling, partial curve, poor fit]","0.0058 µM [falling, full curve, poor fit]"
COc1ccccc1-c1nc(S(=O)(=O)c2ccc(Cl)cc2)c(N(C)C)o1,14.6%,–,"23.1 µM [falling, single point]"
CC1(c2ccc(OC(F)F)cc2)NC(=O)N(CC(=O)NC2CCCC2)C1=O (configuration not stated),-39%,"25.9 µM [falling, single point]",–
CSc1nsc(SCC(=O)Nc2ccccc2C(N)=O)n1,-13.9%,–,–

# Given as tab-separated lines: part of the list above.
SMILES	cell number change	AC50 [1]	AC50 [2]
Cn1c(SCc2ccc([N+](=O)[O-])cc2)nc2c(c1=O)SCC2	-15.3%	–	–
CC1CCCCC1NC(=O)Cn1c(=O)oc2cc(S(=O)(=O)N3CCCC3)ccc21 (configuration not stated)	12%	–	0.092 µM [falling, full curve, poor fit]
CCN1CC2=C(OC(N)=C(C#N)C2c2cccs2)/C(=C\c2cccs2)C1 (configuration not stated)	–	2.91 µM [rising, partial curve, poor fit]	1.46 µM [rising, partial curve]
Brc1ccccc1-c1nnc(COc2cccc3cccnc23)o1	44.8%	5.8 µM [rising, partial curve, poor fit]	11.6 µM [rising, partial curve]
COc1ccc(-c2n[nH]c(=S)o2)c(OC)c1	14.3%	–	29.1 µM [rising, single point]
COc1ccc(CCNc2nc(-c3sc(C)nc3C)cs2)cc1OC	-60.9%	20.6 µM [falling, partial curve]	1.16 µM [rising, full curve]
COc1ccccc1C(=O)NC(CCSC)C(=O)NCC(c1ccccc1OC)N1CCCC1 (configuration not stated)	0.962%	–	0.0731 µM [falling, full curve, poor fit]
CCC(C)(C)n1nnnc1C(c1ccc(OC)cc1)N1CCN(C(=O)c2ccco2)CC1 (configuration not stated)	9.17%	–	–
COC(=O)c1cc(C(=O)OCC(=O)NNC(=O)c2cccs2)cc([N+](=O)[O-])c1	74.3%	9.2 µM [rising, partial curve]	–
O=C(NNS(=O)(=O)c1ccc(Br)cc1)c1csnn1	-17.8%	0.00651 µM [falling, full curve, poor fit]	–
COc1ccc(CNC(=O)c2cc3cccc(O)c3oc2=N)cc1	-0.862%	–	4.61 µM [falling, full curve, poor fit]
COc1ccc(Cl)cc1NC(=O)CCc1nnc2ccc(N3CCC4(CC3)OCCO4)nn12	–	–	18.4 µM [falling, partial curve]
Cc1cccc2cc(CN(Cc3ccco3)S(=O)(=O)c3ccc4c(c3)OCCO4)c(=O)[nH]c12	-17.3%	–	–
CC1CC(C)CN(CCCNC(=O)CC2Oc3ccccc3NC2=O)C1 (configuration not stated)	11.4%	–	0.231 µM [falling, full curve]
CS(=O)(=O)c1cccc(C(=O)Nc2nnc(C3=COCCO3)o2)c1	-2.53%	–	23.1 µM [rising, partial curve, poor fit]
CON(C)S(=O)(=O)c1cccc(C(=O)Nc2ccc(S(=O)(=O)NC3=NCCCCC3)cc2)c1	20%	–	–
